The source of these data is the supplement of paper PMC12819154, “High-throughput peptide-centric local stability assay extends protein–ligand identification to membrane proteins, tissues and bacteria” (Nature Structural & Molecular Biology, 2025).

Sequences of proteins named here, by UniProt entry; tags and fusion partners are left off. A change or cut given only in a name is not applied to a line headed by its entry.
UniProt P25911: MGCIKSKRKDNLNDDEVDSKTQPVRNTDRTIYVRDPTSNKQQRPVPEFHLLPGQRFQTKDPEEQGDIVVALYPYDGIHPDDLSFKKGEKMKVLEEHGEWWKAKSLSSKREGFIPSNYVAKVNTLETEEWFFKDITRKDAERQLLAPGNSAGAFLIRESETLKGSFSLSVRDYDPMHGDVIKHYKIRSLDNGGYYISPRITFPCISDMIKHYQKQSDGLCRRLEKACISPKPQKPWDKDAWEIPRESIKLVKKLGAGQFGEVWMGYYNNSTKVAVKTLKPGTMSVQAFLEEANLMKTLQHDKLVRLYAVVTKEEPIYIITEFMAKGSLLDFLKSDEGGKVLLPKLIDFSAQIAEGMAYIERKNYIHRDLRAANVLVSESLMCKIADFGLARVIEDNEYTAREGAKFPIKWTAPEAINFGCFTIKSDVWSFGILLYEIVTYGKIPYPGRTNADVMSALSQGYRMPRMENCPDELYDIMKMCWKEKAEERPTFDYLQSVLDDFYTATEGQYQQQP
UniProt P32261, whole entry: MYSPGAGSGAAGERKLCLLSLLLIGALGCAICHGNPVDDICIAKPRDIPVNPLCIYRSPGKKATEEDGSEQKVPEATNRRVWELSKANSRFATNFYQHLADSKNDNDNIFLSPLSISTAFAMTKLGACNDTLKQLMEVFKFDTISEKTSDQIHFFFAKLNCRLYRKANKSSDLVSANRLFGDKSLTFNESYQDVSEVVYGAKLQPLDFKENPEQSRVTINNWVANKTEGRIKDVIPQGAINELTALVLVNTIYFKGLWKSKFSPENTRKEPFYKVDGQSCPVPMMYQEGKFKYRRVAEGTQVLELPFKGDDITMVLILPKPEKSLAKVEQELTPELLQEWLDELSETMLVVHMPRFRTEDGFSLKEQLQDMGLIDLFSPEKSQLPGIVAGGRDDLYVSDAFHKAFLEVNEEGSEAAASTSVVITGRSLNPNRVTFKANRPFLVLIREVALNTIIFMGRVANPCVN
UniProt P16675: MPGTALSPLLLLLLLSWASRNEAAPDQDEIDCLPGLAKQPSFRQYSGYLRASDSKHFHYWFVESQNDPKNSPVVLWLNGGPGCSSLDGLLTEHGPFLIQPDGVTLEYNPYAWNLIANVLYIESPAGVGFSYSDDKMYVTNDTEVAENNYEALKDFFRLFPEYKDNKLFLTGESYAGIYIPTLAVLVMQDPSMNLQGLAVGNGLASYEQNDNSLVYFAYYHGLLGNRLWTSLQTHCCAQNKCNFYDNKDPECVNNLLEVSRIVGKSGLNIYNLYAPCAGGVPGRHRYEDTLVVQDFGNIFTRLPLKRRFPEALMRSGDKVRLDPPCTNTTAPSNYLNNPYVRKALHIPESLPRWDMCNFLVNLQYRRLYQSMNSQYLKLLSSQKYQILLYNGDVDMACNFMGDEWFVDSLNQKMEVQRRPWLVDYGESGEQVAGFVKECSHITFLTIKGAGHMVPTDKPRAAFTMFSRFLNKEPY
UniProt P22227: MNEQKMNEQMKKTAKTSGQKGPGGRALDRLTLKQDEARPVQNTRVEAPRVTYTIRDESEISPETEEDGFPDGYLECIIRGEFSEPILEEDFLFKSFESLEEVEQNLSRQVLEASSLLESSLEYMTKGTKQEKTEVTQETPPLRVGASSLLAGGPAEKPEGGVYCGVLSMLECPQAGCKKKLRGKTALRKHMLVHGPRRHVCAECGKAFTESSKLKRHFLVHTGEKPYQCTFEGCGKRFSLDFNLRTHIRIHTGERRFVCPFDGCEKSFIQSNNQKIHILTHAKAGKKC
UniProt P22361, whole entry: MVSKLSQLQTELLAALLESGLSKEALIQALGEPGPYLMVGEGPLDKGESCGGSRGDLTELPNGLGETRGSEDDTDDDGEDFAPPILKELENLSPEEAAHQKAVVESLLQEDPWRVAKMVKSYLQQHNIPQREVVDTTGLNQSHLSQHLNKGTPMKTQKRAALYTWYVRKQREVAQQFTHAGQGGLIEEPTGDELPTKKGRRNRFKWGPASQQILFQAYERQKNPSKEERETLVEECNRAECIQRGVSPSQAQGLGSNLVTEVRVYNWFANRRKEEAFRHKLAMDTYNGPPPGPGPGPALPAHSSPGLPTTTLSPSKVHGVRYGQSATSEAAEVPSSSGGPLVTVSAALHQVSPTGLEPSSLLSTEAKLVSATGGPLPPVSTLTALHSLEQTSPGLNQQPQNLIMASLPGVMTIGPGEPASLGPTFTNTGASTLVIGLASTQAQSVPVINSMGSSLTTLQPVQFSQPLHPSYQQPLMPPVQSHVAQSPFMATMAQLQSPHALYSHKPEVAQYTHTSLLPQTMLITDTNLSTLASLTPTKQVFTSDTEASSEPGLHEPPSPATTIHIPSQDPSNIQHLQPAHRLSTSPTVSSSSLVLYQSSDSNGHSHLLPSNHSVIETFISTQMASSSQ
UniProt P23492: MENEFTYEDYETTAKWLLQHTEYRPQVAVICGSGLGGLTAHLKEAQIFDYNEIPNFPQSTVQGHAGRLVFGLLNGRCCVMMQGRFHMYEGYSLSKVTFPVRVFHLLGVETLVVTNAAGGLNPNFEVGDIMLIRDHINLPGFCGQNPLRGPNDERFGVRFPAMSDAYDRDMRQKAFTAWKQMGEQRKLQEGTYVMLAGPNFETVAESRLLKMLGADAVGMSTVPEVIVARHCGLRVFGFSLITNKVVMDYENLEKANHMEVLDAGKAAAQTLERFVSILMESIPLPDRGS
UniProt P29699: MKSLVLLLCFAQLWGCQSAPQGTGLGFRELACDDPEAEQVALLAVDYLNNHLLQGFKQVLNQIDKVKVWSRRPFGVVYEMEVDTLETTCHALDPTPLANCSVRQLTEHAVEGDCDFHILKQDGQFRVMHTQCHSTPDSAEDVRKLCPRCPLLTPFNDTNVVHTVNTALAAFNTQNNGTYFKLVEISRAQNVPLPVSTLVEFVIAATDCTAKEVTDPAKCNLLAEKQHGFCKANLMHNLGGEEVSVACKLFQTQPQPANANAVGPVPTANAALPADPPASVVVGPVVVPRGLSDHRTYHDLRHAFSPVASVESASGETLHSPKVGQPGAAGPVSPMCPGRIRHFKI
UniProt P22518: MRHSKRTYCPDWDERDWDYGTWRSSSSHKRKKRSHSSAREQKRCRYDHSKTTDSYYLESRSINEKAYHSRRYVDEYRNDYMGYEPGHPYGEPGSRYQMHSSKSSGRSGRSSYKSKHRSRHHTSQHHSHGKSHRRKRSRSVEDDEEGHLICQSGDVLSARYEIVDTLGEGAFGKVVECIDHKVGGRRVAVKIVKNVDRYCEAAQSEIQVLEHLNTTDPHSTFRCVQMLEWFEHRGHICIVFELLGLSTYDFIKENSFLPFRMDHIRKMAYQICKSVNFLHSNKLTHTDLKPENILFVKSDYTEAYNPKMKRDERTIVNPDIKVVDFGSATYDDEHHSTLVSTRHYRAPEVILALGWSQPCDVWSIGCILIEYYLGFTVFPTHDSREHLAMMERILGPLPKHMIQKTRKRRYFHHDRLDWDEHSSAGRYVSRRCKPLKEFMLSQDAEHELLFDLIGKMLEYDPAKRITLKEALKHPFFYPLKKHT
UniProt P23780: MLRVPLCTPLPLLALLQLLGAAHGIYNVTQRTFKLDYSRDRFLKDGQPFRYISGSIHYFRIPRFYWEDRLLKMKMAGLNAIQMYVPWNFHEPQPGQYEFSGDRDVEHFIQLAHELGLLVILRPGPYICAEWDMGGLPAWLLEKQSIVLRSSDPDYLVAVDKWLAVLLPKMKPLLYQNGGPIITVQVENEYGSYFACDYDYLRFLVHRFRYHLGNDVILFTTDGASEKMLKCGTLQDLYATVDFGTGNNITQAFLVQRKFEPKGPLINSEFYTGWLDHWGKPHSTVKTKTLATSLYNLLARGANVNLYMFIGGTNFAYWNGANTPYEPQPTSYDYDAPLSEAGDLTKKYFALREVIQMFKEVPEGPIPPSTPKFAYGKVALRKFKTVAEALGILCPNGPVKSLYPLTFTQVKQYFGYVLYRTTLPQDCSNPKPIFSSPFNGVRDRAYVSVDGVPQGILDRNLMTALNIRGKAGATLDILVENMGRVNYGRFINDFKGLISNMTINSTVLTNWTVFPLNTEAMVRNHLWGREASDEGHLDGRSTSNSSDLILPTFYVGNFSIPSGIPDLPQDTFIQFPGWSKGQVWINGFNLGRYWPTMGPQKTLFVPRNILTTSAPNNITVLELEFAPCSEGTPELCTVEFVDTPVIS
UniProt P34960: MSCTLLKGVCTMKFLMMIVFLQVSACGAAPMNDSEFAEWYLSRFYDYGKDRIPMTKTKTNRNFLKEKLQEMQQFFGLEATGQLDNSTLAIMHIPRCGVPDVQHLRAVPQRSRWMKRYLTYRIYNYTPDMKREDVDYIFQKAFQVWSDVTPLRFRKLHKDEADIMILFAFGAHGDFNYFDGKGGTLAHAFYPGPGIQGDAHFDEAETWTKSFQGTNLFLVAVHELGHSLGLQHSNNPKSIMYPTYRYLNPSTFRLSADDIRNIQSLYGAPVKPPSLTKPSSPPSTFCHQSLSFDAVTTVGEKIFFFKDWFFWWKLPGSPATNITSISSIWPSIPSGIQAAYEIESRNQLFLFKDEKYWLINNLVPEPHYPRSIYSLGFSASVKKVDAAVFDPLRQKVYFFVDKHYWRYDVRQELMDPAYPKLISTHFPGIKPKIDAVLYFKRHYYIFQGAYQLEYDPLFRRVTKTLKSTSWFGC

The list shows a part of the results. Most values lie at the level of the controls, where differences are scatter.

Compound in the assay: CN[C@@H]1C[C@H]2O[C@@](C)([C@@H]1OC)n1c3ccccc3c3c4c(c5c6ccccc6n2c5c31)C(=O)NC4 [staurosporine]
Description: log2 fold change of tryptic peptide abundance, ligand vs vehicle (limited proteolysis) (log2 ratio); higher = more trypsin-susceptible (destabilized). The settings on record: ligand concentration: 20 uM; sample: mouse liver crude lysate; replicate design: treated separately.
In the case of “UniProt P25911 (peptide sequence: DYDPMHGDVIK, peptide start residue: 171)”, the log2 fold change turned out to be 0.507.
Turning to “UniProt P32261 (peptide sequence: DIPVNPLCIYRSPGKK, peptide start residue: 47)”, the log2 fold change was 0.169.
To “UniProt P16675 (peptide sequence: GAGHMVPTDKPR, peptide start residue: 448)” belongs 0.155.
To “UniProt P22227 (peptide sequence: FSLDFNLR, peptide start residue: 364)” belongs 0.293.
To “UniProt P22361 (peptide sequence: AALYTWYVR, peptide start residue: 160)” belongs -0.217.
In the case of “UniProt P23492 (peptide sequence: FPAMSDAYDRDMR, peptide start residue: 159)”, the log2 fold change is -0.234.
To “UniProt P29699 (peptide sequence: QLTEHAVEGDCDFHILK, peptide start residue: 104)” belongs -0.103.
With “UniProt P22518 (peptide sequence: YFHHDRLDWDEHSSAGR, peptide start residue: 410)” the figure was 0.695; with “UniProt P23780 (peptide sequence: SLYPLTFTQVK, peptide start residue: 401)”, 0.0716; with “UniProt P26039 (peptide sequence: ALEATTEHIRQELAVFCSPEPPAK, peptide start residue: 2145)”, -0.39.
On to “UniProt P34960 (peptide sequence: TNRNFLKEK, peptide start residue: 59)”, for which the log2 fold change worked out at 0.977.
